# Results published in US20260069563A1, “CETOLEIC ACID COMPOSITION” (Epax Norway AS, priority 2022, published 2026).
# For at least one compound, name, drawing or mass did not settle the structure.
# How the values were obtained:
# human fibroblasts = assay: Melanin concentration in human fibroblasts after menadion-induced oxidative stress; format: cell-based; settings: human fibroblasts after oxidative stress induced by menadion; FIG. 2
# [1] = test system: MMP2, ATF6B and TNF-alpha; assay: Relative expression of inflammation related genes in human fibroblasts under oxidative stress; format: cell-based; settings: compared to control, not statistically significant, FIG. 3
structure (smiles),measurement,setting,value
"CC/C=C\C/C=C\C/C=C\C/C=C\C/C=C\C/C=C\CCC(=O)O [DHA, Docosahexaenoic acid]",Melanin production,human fibroblasts,reduced
same,"expression of the genes MMP2, ATF6B and TNF-alpha",[1],no such tendency
